According to publication PMC8537947 (Pharmaceuticals, 2021):

Assay: peptide synthesis
Conditions: whole synthesis

Substance: NOTA-PEG2-c[CPGRVNleHGLHLGDDEGPC]
- purity (crude or final not stated): 97%
